# Test results from PubChem BioAssay AID1688 (National Center for Advancing Translational Sciences (NCATS), 2009).
# Hit rate of the full screen: of about 220,000 compounds, about 2,400 (1.1%) were called active. The inconclusive results got no clear call from the source; some entries with a clear call stand among them for comparison. The call rests on the fitted dose curve; in most records, active means well fitted inhibition curve with a large enough effect; inconclusive means small, poorly fitted or top-dose-only effect, or effect the other way; inactive means no such curve, though single readings can be large or run the other way. Potencies of inconclusive entries are doubtful fits and often do not repeat.
# Experiment: qHTS Multiplex Assay to Identify Dual Action Probes in a Cell Model of Huntington: Aggregate Formation (GFP); further: nearly all actives have a fitted effect of over 60% in size
# Settings: PC12 HttQ103-GFP aggregates, Acumen cytometry, 40 h; activity change, negative = inhibition: at 46.1 µM (top of the series)
# Text: NIH Chemical Genomics Center [NCGC]
# NIH Molecular Libraries Probe Production centers Network [MLPCN]
# Assay Submitter (PI): Wei Zheng
# Huntington's disease is a neurodegenerative disorder caused by a trinucleotide repeat expansion in Exon 1 of the Huntingtin gene. The CAG trinucleotide encodes glutamine and polyglutamine expansions cause cell death in selective areas of the brain. Huntington polyglutamine repeats have the tendency to form aggregates which are observable in later stages of the disease. The exact nature of the aggregates, whether toxic, protective, or insignificant, is unclear.
# A stable PC12 cell line containing a gene fusion of Exon 1 of the Huntingtin gene linked to GFP under the control of the inducible ecdysone promoter were used as the cell-based model of Huntington Disease for high throughput screening. Exon 1 of the Huntingtin gene contained an expansion of 103 polyglutamines (Q103) which, when expressed, caused cell death and distinct, bright GFP aggregates. The amount of cell death and the size and intensity of GFP aggregates increased over time and induction level. The cell death were quantified with a measurement of ATP content in the cells. A maximal 40-50% of cell death was observed when the Huntington gene was induced in this cell line.
# We optimized this assay in a homogeneous 1536 well format. A quantitative high throughput screen (qHTS) was conducted on the PC12 cells which were induced to express the toxic fusion construct. Small molecules which reduced aggregate formation were identified bu using a laser scanning cytometer calibrated to detect the aggregates in cell lysates.
# PC12 cells stably containing a construct with an ecdysone inducible promoter expressing GFP fused to the exon 1 of HTTQ103 (Huntington protein which containing a 103 ployglutamine expansion) were used.
# NCGC Assay Protocol Summary:
# Sequence, Parameter, Description
# 1, Reagent, 5 uL 1500 cells/well 1536 TC treated White clear bottom plate
# 2, Compound, 23 nL Tebufenozide inducer (100 nM final) to all columns
# 3, Compound, 23 nL 40 uM to 0.5 nM Libraries
# 5, Reagent, 5 ul ATPLite cell death assay reagent
# 6, Detector, Aggregate quantitation by Acumen Explorer
# Media consisted of phenol red free DMEM + 5% equine serum (Hyclone # SH30072.03 ), 5% supplemented Bovine Calf Serum (Hyclone # SH30074.03 ), 1x pen/strep, no G418
# Acumen Explorer was used to quantitate GFP aggregates using the following criteria: […] laser excitation, 500-530 nm emission, the PMT was set at a voltage of 450 volts, and objects ranging in size of […] in size having a signal of 6 STDEV above background were collected.
# Control columns: 1 = DMSO, 2= 2 uM teb dilns (1:1), 4 = 100 nM Teb inducer. Sample columns received 100 nM Teb.
# On the % scale 0 is the no-effect control and ±100 the full control effect; potency means the concentration at half of the fitted maximal effect.
Compound,"activity change, negative = inhibition",Potency
CN1C(=O)N(C)C(=O)C(CCc2ccncc2)(CCc2ccncc2)C1=O,inactive: -6.89% [at 9.22 µM],
CC(C)(C)NCC1(CO)SC(N)=NC1=O (stereo unspecified),,active: 22.4 µM
O=C(CC1CCCCC1)c1c(O)c2ccccc2oc1=O,,"inconclusive: 5.01 µM [inhibitor, single point]"
O=C(Cn1c2c(c(-c3ccccc3Cl)cc1=O)CCC2)N1CCC2(CC1)OCCO2,,inactive
O=C(CN1CCN(S(=O)(=O)c2ccc3ccccc3c2)CC1)NC(=O)NC1CCCCC1,,"inconclusive: 11.2 µM [inhibitor, partial curve]"
CC[n+]1c(-c2ccccc2)c2cc(N)ccc2c2ccc(N)cc21,,active: 14.1 µM
O=C(CN1CCCC1=O)Nc1ccccc1,,"inconclusive: 1.26 µM [inhibitor, single point]"
COc1ccc(C=C2C(=O)N(C)C(=O)N(C)C2=O)cc1CSc1ccccn1,,inactive
CNCC(O)c1cccc(OC(=O)c2ccccc2C)c1 (stereo unspecified),,"inconclusive: 6.31 µM [activator, single point]"
c1ccc(-c2ccc(-c3n(-c4ccccn4)c4ccccc4[n+]3-c3ccccn3)cc2)cc1,,"inconclusive: 17.8 µM [inhibitor, single point]"
CCN(CC)C1=NC(=[N+](CC)CC)c2ccccc21,,active: 2.82 µM
CCOP(=O)(OCC)c1nc(-c2ccc(Cl)cc2)oc1NCc1ccccc1,,"inconclusive: 35.5 µM [inhibitor, single point]"
CCCCn1c(=O)c(C(=O)Nc2cnccn2)c(O)c2ccccc21,,"inconclusive: 3.16 µM [inhibitor, single point]"
CCc1ccc2nc(N3CCC(C(=O)N4CCC5(CC4)OCCO5)CC3)sc2c1,,inactive
COc1ccc(OC)c(-n2c(O)c(/C=C3\C(C)=Nc4ccccc43)c(=O)[nH]c2=O)c1,inactive: 22.1% [at 9.22 µM],
CNC(=O)Oc1cccc(-c2cn3cc(OC(=O)NC)ccc3n2)c1,,inactive
CC(C)C(=O)Nc1ccc([N+](=O)[O-])c(C(F)(F)F)c1,,"inconclusive: 15.8 µM [inhibitor, single point]"
Cc1cccc(OCCn2cccc2/C=C2/C(=O)NC(=O)N(Cc3ccco3)C2=O)c1,inactive: -7.62% [at 9.22 µM],
C/C(Cl)=C/CC1(CN2CCCC2=O)C(=O)NC(=O)NC1=O,,inactive
CCOC(=O)C1CCCN(c2ccc([N+](=O)[O-])c3nonc23)C1 (stereo unspecified),,"inconclusive: 35.5 µM [inhibitor, single point]"
CC1(C)C2CC=C(CN3CCC(O)CC3)C1C2 (stereo unspecified),,"inconclusive: 0.112 µM [inhibitor, full curve]"
CCOC(=O)N1CCN(c2ccc(Cl)c(Cl)c2)CC1,,"inconclusive: 35.5 µM [inhibitor, single point]"
Cc1ccc(-n2c(O)c(C=Nc3ccccc3N)c(=O)[nH]c2=O)cc1C,,"inconclusive: 17.8 µM [activator, single point]"
CCCCCn1c(N)c(C(=O)NCCN2CCOCC2)c2nc3ccccc3nc21,,"inconclusive: 31.6 µM [inhibitor, single point]"

Compound,"activity change, negative = inhibition",Potency
COc1cc2c(cc1OC)CN(c1ccc([N+](=O)[O-])c(C(F)(F)F)c1)CC2,,"inconclusive: 3.55 µM [activator, partial curve]"
CCOc1cc(CNCCc2c[nH]c3ccccc23)cc(Cl)c1OCC,,inactive
O=C(CSc1ccccn1)Nc1cccc2ccccc12,,"inconclusive: 5.62 µM [activator, single point]"
c1ccc2c(CNC3CCCCC3)c[nH]c2c1,,active: 11.2 µM
CCn1nc(-c2cccs2)nc2c(=O)n(C)c(=O)nc1-2,,active: 17.8 µM
O=C1NC(=O)N(Cc2ccccc2)C(=O)/C1=C\c1ccco1,,inactive
CCCCn1c(O)c(C(CC)=Nc2ccc3c(c2)CCC3)c(=O)[nH]c1=O,,"inconclusive: 11.2 µM [inhibitor, single point]"
O=c1[nH]c(=O)n(-c2ccccc2)c(O)c1C=NC12CN3CN(CN(C3)C1)C2,,"inconclusive: 7.08 µM [activator, partial curve]"
Cc1ccc(N2C(=O)NC(=O)C3(Cc4ccccc4N4CCN(c5ccccc5)CC43)C2=O)cc1 (stereo unspecified),,inactive
CN1CCc2c(C#N)c(Cl)nc(Cl)c2C1,,"inconclusive: 11.2 µM [activator, partial curve, poor fit]"
COC(=O)c1c(C)n(Cc2ccc3c(c2)OCO3)c2ccc(O)cc12,,"inconclusive: 35.5 µM [inhibitor, single point]"
Cc1cc(OC(=O)c2ccco2)c2c3c(c(=O)oc2c1)CCC3,,"inconclusive: 12.6 µM [inhibitor, partial curve]"
CCOC(=O)c1sc(/N=C/c2c(O)n(-c3ccccc3)c(=O)[nH]c2=O)c(C#N)c1C,inactive: -7.61% [at 1.84 µM],
O=c1cc(C(F)(F)F)c2cc3c4c(c2o1)CCCN4CCC3,,"inconclusive: 3.55 µM [inhibitor, partial curve]"
CCOC(=O)c1c(-n2c(C)cc(C=C3C(=O)NC(=O)NC3=O)c2C)sc2c1CCCC2,,"inconclusive: 35.5 µM [activator, single point]"
Cc1cccc(N2C(=O)NC(=O)/C(=C\c3cc(C)n(-c4sc5c(c4C#N)CCCC5)c3C)C2=O)c1C,,active: 5.01 µM
COC(=O)c1c(C)[nH]c(C(=O)C(Cc2ccccc2)N(C)C)c1C (stereo unspecified),,"inconclusive: 5.62 µM [inhibitor, single point]"
Cc1ccc(-n2nc(C)c3c2NC(=O)CSC3c2ccc3c(c2)OCO3)cc1 (stereo unspecified),,"inconclusive: 20 µM [inhibitor, single point]"
CCCCCCCCCC[N+](C)(C)CCCCCCCCCC,,"inconclusive: 11.2 µM [inhibitor, full curve, poor fit]"
CC1CCCC(C)N1/N=C/c1c[nH]c2ccc(Br)cc12 (stereo unspecified),,"inconclusive: 35.5 µM [inhibitor, single point]"
CCn1c(O)c(/C=N/N2CCOCC2)c(=O)n(CC)c1=S,,"inconclusive: 2 µM [inhibitor, full curve]"
CC(C)(C)c1ccc(OC(=O)N2CCCCC2)cc1,,"inconclusive: 11.2 µM [inhibitor, partial curve]"
C=CCN1C(=O)/C(=C/c2cccs2)C(=O)NC1=S,,inactive
O=c1[nH]c(=S)n(-c2ccc(Cl)cc2)c(O)c1C=Nc1ccc(N2CCOCC2)cc1,,"inconclusive: 10 µM [activator, partial curve, poor fit]"

# In a second layout: entries from further up
Compound	activity change, negative = inhibition	Potency
COc1cc2c(cc1OC)CN(c1ccc([N+](=O)[O-])c(C(F)(F)F)c1)CC2		inconclusive: 3.55 µM [activator, partial curve]
O=C(CSc1ccccn1)Nc1cccc2ccccc12		inconclusive: 5.62 µM [activator, single point]
CCOC(=O)c1c(-n2c(C)cc(C=C3C(=O)NC(=O)NC3=O)c2C)sc2c1CCCC2		inconclusive: 35.5 µM [activator, single point]
Cc1ccc(-n2nc(C)c3c2NC(=O)CSC3c2ccc3c(c2)OCO3)cc1 (stereo unspecified)		inconclusive: 20 µM [inhibitor, single point]

# Following part:

Compound,"activity change, negative = inhibition",Potency
CCOc1cccc(OCCOCCN2CCCC2)c1,,"inconclusive: 1 µM [inhibitor, single point]"
CCOC(=O)CNC(=O)CSP(=S)(OCC)OCC,inactive: 4.82% [at 9.22 µM],
O=Cc1cn(Cc2ccc(F)cc2)c2ccccc12,,"inconclusive: 35.5 µM [inhibitor, single point]"
CCC(C)n1c(O)c(/C=N/Nc2ccccc2)c(=O)[nH]c1=S (stereo unspecified),,inactive
O=C1CN(C(=O)CN2CCCCC2)C(c2ccccc2)c2cc(Br)ccc2N1 (stereo unspecified),,inactive
C=C(COC(=O)CCC(=O)O)CC1CC(O)[C@]2(C)OC3CC4OC5C[C@]6(C)O[C@]7(C)CCC8OC9C[C@]%10(C)OC%11C(C)=CC(=O)OC%11CC%10OC9C[C@@H](C)C8OC7CC6O[C@]5(C)C/C=C\C4OC3CC2O1 (stereo partly specified),,"inconclusive: 0.398 µM [activator, single point]"
CN1CCN(c2ccc(N)c(N3CCN(C)CC3)c2)CC1,,"inconclusive: 35.5 µM [activator, single point]"
O=C(CCC1CCCC1)c1c(O)c2ccccc2oc1=O,,"inconclusive: 12.6 µM [inhibitor, single point]"
Oc1ccc2ccccc2c1CN1CC=C(c2ccccc2)CC1,,"inconclusive: 1.78 µM [activator, partial curve]"
CCCCn1c(O)c(C(CC)=NC(C)c2ccccc2)c(=O)[nH]c1=O (stereo unspecified),inactive: 11.1% [at 9.22 µM],
Cc1ccc(C)c(OCC(=O)N2CCCN(C)CC2)c1,,inactive
CCCNC(=O)c1c(N)n(CC2CCCO2)c2nc3ccccc3nc12 (stereo unspecified),,"inconclusive: 17.8 µM [inhibitor, single point]"
O=[N+]([O-])/C=C/c1c(OCc2ccccc2)ccc2ccccc12,,"inconclusive: 3.55 µM [inhibitor, single point]"
C=CCN1C(=O)NC(=O)/C(=C/c2cc3c4c(c2)CCCN4CCC3)C1=O,,inactive
c1ccc2c(CN3CCCCCC3)c[nH]c2c1,inactive: 16.7% [at 9.22 µM],
COc1ccc(/C=C/C(=O)c2c(O)n(CCC3=CCCCC3)c(=O)[nH]c2=O)cc1,,"inconclusive: 3.16 µM [activator, partial curve, poor fit]"
O=C1CN=C(c2ccccc2)c2cc(Br)ccc2N1Cc1cc(=O)n2ccccc2n1,,inactive
COc1ccc2ccc(O)c(CN3CC=C(c4ccccc4)CC3)c2c1,,inactive
COc1ccccc1C1=NCc2nnc(C)n2-c2ccc(Cl)cc21,,inactive
C[n+]1c(-c2ccccc2)cc(-c2ccc(O)cc2)cc1-c1ccccc1,,"inconclusive: 6.31 µM [inhibitor, partial curve]"
O=C(Nc1ccc(Br)cc1)c1cc(Br)cc(Br)c1O,,"inconclusive: 14.1 µM [inhibitor, full curve, poor fit]"
CN1CCc2nc(N)c(C#N)c(-c3ccccc3)c2C1,,inactive
Cc1ccc(-c2nn(C)c(=O)c3ccccc23)cc1CNC(=O)/C=C/c1ccccc1,,"inconclusive: 15.8 µM [inhibitor, single point]"
